Results as given in patent US8399493B2, “Pyridinone derivatives and their use as positive allosteric modulators of mGluR2-receptors” (Janssen Pharmaceuticals, Inc., priority 2004, dated 2013).
For at least one compound, name, drawing or mass did not settle the structure.

Protein sequences, listed by entry. Tags and fused reporters are not part of them. Residues count along the entry.
UniProt P31421, 19-872: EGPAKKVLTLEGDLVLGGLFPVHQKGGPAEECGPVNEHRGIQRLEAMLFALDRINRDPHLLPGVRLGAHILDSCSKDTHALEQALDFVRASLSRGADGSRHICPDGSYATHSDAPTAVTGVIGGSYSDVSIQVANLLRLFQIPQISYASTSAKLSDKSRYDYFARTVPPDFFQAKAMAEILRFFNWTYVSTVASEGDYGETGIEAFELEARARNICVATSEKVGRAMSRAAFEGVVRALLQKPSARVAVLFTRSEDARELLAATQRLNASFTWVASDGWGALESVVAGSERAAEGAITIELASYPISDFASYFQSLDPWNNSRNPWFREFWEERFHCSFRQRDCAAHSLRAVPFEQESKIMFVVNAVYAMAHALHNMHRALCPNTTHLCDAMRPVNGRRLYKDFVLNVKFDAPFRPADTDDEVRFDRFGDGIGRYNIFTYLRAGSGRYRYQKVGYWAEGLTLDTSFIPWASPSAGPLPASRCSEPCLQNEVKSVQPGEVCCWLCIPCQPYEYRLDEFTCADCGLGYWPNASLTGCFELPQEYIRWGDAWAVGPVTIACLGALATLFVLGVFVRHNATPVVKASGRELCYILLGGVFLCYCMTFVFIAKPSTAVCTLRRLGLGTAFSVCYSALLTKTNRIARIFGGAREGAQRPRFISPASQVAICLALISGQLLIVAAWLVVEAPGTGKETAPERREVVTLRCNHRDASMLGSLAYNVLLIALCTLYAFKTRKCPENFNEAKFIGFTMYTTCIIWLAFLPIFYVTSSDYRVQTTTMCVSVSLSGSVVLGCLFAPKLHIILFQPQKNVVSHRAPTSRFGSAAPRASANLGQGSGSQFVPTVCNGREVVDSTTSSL

Target: T1, native rat mGluR2 (Rattus norvegicus, UniProt P31421)
T1 construct: from tissue; host or cells: rat brain cortex membranes (Sprague-Dawley rats, Charles River Laboratories)
Experiment: [35S]GTPγS binding assay using cortical rat brain membranes
Type: biochemical
Conditions: selective mGluR2 agonist such as LY379268, 3 or 10 μM of positive allosteric modulator
Description: The [^35S]GTPγS binding is a functional membrane-based assay used to study G-protein coupled receptor (GPCR) function. This method is using a binding assay to assess the initial step in receptor-mediated G protein activation in membranes prepared from cells expressing recombinant GPCR or using membranes from discrete area of the rat brain. In brief, the assay is measuring the activation of G proteins by catalyzing the exchange of guanosine 5′-diphosphate (GDP) by guanosine 5′-triphosphate (GTP) at the α subunit. The GTP-bounded G proteins dissociate into two subunits, Gα-GTP and Gβγ, which in turn regulate intracellular enzymes and ion channels. GTP is rapidly hydrolysed by the Gα-subunit (GTPases) and the G protein is deactivated and ready for new GTP exchange cycle (Harper (1998) Curr Protoc Pharmacol 2.6.1-10, John Wiley & Sons, Inc.). [^35S]GTPγS, a non-hydrolyzed analogue of GTP, is used for this purpose. […]
Cortices were dissected out from brains of 200-300 g Sprague-Dawley rats (Charles River Laboratories, L'Arbresle, France). […] Protein concentration was determined by the Bradford method (Bio-Rad protein assay, Reinach, Switzerland) with bovine serum albumin as standard. […]

In the case of `COc1ccc(COc2ccc(=O)n(Cc3ccc(Cl)cc3)c2)cc1` [3-17, 1-(4-Chlorobenzyl)-5-(4-methoxybenzyloxy)pyridin-2(1H)-one], the “Activity: left-ward shift of agonist mGluR2 concentration-response curve” value is reported as “++ (left-ward shift of agonist mGluR2 concentration-response curve [2- to 3.5-fold])”.
